Among the data in PubChem BioAssay AID1347421 (Sanford-Burnham Center for Chemical Genomics, 2020) are activity values, retold here.

Chains of the proteins cited; added tags and fusions are not shown. Lines headed by an entry give the natural chain unless they say otherwise; changes in a name come on top.
UniProt O00391: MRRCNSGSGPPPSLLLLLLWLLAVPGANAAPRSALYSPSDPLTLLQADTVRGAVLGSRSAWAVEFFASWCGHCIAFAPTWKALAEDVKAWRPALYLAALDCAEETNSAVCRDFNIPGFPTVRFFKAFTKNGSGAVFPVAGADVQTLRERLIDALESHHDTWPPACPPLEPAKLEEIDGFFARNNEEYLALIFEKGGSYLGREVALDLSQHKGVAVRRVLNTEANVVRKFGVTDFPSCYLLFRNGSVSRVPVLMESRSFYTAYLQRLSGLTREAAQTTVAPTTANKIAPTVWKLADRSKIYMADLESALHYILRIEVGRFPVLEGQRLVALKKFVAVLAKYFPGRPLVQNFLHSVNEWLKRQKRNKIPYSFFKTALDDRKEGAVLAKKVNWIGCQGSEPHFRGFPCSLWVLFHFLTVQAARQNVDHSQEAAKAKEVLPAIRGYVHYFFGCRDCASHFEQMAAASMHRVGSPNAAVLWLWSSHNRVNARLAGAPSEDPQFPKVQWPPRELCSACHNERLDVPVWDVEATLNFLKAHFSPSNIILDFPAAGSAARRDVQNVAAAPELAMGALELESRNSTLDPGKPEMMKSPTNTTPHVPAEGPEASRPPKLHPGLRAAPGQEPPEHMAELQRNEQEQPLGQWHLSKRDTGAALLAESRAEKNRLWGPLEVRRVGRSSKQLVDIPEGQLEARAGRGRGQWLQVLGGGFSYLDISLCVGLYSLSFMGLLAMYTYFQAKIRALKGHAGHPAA

Each structure is given as a SMILES string. In all, about 1,500 compounds were measured (“activity”: median about 2, lowest 2% from about -18 on). Some of the results follow. Active and inactive are the calls of the source.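 The calls were made as follows: active = inhibition of at least 40% at 10 µM; inconclusive = no clear call, values can overlap the other calls; inactive = the rest.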

This experiment concerns the target Sulfhydryl oxidase 1 (Homo sapiens) (UniProt O00391). Kind of experiment: QSOX1 enzyme inhibitors, confirmation, biochemical, ROS-Glo luminescence, single concentration (AID 1347421).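 Also: 0% = DMSO wells with enzyme and 100% = wells lacking QSOX1 enzyme.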 The settings on record: recombinant hQSOX1, RNase A substrate, ROS-Glo H2O2 luminescence; at 10 µM.
For `Cc1nc(CN2CCN(Cc3nc(-c4cccc(Cl)c4)no3)CC2)cs1`, the activity is inactive: -1.4%.
For `OC(COc1cccc(CNCc2ccc3nsnc3c2)c1)CN1CCOCC1` (configuration not stated) the value was 0.3%.
Consider `CC(C)Oc1cccc(NC(=O)c2ccccc2Cl)c1`, for which the activity was inactive: -28.9%.
For `C=CCCC(=O)N1CCC2(CCCN(Cc3ccc(F)c(F)c3)C2=O)C1` (configuration not stated), the activity is inactive: -1.3%.
On to `CN(Cc1ccccc1)C1CCCN(Cc2nc(-c3ccccc3)no2)C1` (configuration not stated), for which the activity was inactive: -2.9%.
For `C=CCN(CC=C)C(=O)Cn1nnnc1CN1CCOCC1` the value was 8.8%.
For `COC(=O)c1ccc(CNC(=O)CC2C(=O)NCCN2Cc2cccs2)cc1` (configuration not stated) the value was 2.8%.
For `O=Cc1ccc(C(=O)N2CCCC(C(=O)c3cccc4ccccc34)C2)cc1` (configuration not stated) the value was inactive: -2.5%.
`CSCCC(=O)N1CCC(CCC(=O)NCc2cccc(Cl)c2)CC1`: the activity stood at 2.9%.
For `COc1ccc(Cl)cc1-c1noc(COc2ccccc2)n1` the value was 6.3%; for `CCC1CCC(=O)C(C2(O)C(=O)Nc3ccc(Br)cc32)C1` (configuration not stated), 2.7%; for `COc1ccccc1-c1cnn(CC(=O)Nc2c(-c3ccccc3)cnn2C)c1`, 4.5%.
Take `CN(C(=O)CCN1CCCCO1)C1CCCN(Cc2ccccc2F)C1` (configuration not stated): the activity is inactive: -4.3%.
Consider `Cc1nc(SCC(=O)N2CCN(c3ccccc3)CC2)nc2c1CCCC2`, for which the activity is inactive: -19.5%.
As to `CC1(C)CN(C(=O)Nc2nnc(-c3ccco3)s2)CCO1`, the activity is inactive: -7.1%.
For `COc1ccc(CNCC(C)(C)CO)cc1OCC(O)CN(C)C(C)C` (configuration not stated) the value was 8.7%.
On to `CC(C)(C)C(=O)N1CCN(c2ccc(NC(=O)c3cccc(F)c3)cc2)CC1`, for which the activity was inactive: -5.5%.
For the compound `COC1=C(OC)C=CC(c2nnn(C3CCNCC3)n2)=[C+]1`, the activity was inactive: -20.6%.
In the case of `C=C(C)CNCc1ccc(OCC(O)CN2CCC(C(=O)OC)CC2)cc1` (configuration not stated), the activity was determined as 16.9%.
For `CN1CCCN(c2nc3nonc3nc2N2CCSCC2)CC1` the value was inactive: -4.7%; for `COc1ccc(CNCc2ccccc2)cc1OCC(O)CN(C)C(C)C` (configuration not stated), inactive: -0.1%; for `CCN(Cc1cnn(C)c1)C(=O)c1ccc(OC2CCN(C)CC2)c(OC)c1`, 7.9%.
Consider `COc1cc(CNCC2CCOCC2)ccc1OCC(O)CN1CCCC1` (configuration not stated), for which the activity is inactive: 0%.
In the case of `C=CCn1nnnc1NCc1ccc(F)cc1`, the activity amounted to 7.4%.
For `Cc1ncoc1C(=O)N1CCc2c([nH]c3ccccc23)C1C(C)(C)C` (configuration not stated) the value was 2.7%.
For `CCCn1cc(-c2cc(C(=O)N3CCCC3)c3cc(F)ccc3n2)cn1` the value was 3.2%.
For `[C+]1=C(Cc2ccccc2)C=CC(OCCN2CCOCC2)=C1`, the activity came to 2.5%.
For `CN(C)CCNC(=O)CCC1CCN(Cc2nccs2)CC1` the value was 0.5%.
For `OCCOc1cccc(CN2CCN(Cc3ccccc3F)C(CCO)C2)c1` (configuration not stated) the value was 5.7%.
On to `N#Cc1ccccc1CN1C(=O)C(=O)c2ccccc21`, for which the activity was determined as 1.6%.
Turning to `COc1ccc(OC2CCN(C(=O)C3CC3)CC2)c(C(=O)NCCCN2CCOCC2)c1`, the activity stood at 2%.
For `CN(CCc1cn[nH]c1)Cc1c(C(=O)N2CCCCCCC2)nc2ccc(Cl)cn12` the value was 11%; for `COCCn1c(CN(C)Cc2cccs2)cnc1S(=O)(=O)CC1CC1`, 7.7%.
As for `CCCC(=O)Nc1ccccc1NC(=O)c1ccccc1SC`, the activity was inactive: -2.9%.
On to `CN1C(=O)c2ccc(C(=O)N(C)C3CCCN(Cc4ccccc4F)C3)cc2C1=O` (configuration not stated), for which the activity worked out at 6.9%.
For `C#CCN(Cc1cnc(S(=O)(=O)CC)n1CCCC)C1CCCCC1` the value was 3%; for `FC(F)(F)C1=[C+]C(OCCNCc2ccco2)=CC=C1`, inactive: -15.8%.
`COc1ccc(S(N)(=O)=O)cc1NC(C)=O`: the activity was inactive: -13.7%.
On to `O=C(CCC1CCCN(C(=O)C2(c3ccccc3)CCCCC2)C1)N1CCOCC1` (configuration not stated), for which the activity was 5.6%.
As for `Cc1noc(C)c1CC(=O)N1CCCC(CCC(=O)N(C)CCc2ccccn2)C1` (configuration not stated), the activity was determined as 5.3%.
For `COC(=O)C1CCN(C(=O)C(C)NC(=O)CC23CC4CC(CC(C4)C2)C3)CC1` (configuration not stated) the value was 1.8%.
Consider `O=C(Nc1ccnn1C1CCN(Cc2ccc(CO)o2)CC1)c1ccccc1Cl`, for which the activity was inactive: -0.6%.
Turning to `COCCN1CCC(CN(Cc2ccncc2)Cc2ccc3c(c2)CCO3)CC1`, the activity stood at 0.4%.
As to `O=C1N(Cc2cccc(F)c2F)CCCC1(O)CN1CCCC1` (configuration not stated), the activity was found to be 3.2%.
For the compound `O=C(CCC1CCN(Cc2c(F)cccc2Cl)CC1)N1CCCC1`, the activity was 11.6%.
For `COc1ccc(CCN(C)C2CCCN(C3CCN(C(C)=O)CC3)C2)cc1OC` (configuration not stated), the activity is 6.8%.
Consider `O=C(c1ncn[nH]1)N1CCC2(CC1)c1ccccc1[C@@H](N1CCCCC1)[C@@H]2O`, for which the activity is inactive: -9.2%.
For `CCOC(=O)N1CCN(C2CCCN(C(=O)c3ccccc3SC)C2)CC1` (configuration not stated) the value was 4.1%; for `O=C(c1n[nH]c2c1CCC2)N1CCC2(CCCN(Cc3cccnc3)C2=O)C1` (configuration not stated), 3.7%; for `COCCN1CCC(CN(Cc2ccncc2)Cc2cc3ccccc3o2)CC1`, 1.5%.
For `COc1cccc(CC2CN(Cc3cccc(C)n3)CCO2)c1` (configuration not stated) the value was 0.1%.
Consider `Cc1c(C(=O)NCc2cccnc2)sc2ncnc(NCc3ccco3)c12`, for which the activity is 10.3%.
On to `Cc1ccc(-c2ccc(C(=O)N3CCOC(CCN(C)C)C3)cc2)o1` (configuration not stated), for which the activity is inactive: -0.4%.
Turning to `Cc1nc(NC(=O)NCc2scnc2-c2ccccc2)nn1C(C)C`, the activity stood at 4.5%.
With `O=C(NC1CC(=O)N(Cc2cccc3ccccc23)C1)C(=O)c1ccccc1` (configuration not stated), the activity was inactive: -11.4%.
For `O=C(Cc1cccnc1)N1CCC2(CCCN(CCC3CCCCC3)C2=O)C1` (configuration not stated) the value was 1.7%; for `COc1ccc(CC2CN(C(=O)c3ccc4nccnc4c3)CCO2)cc1` (configuration not stated), inactive: -1.2%; for `c1cnc(-n2ccnc2)c(CNC2CCCCCCC2)c1`, 2.4%.
In the case of `COc1ccc(CNCc2cc(C)n(C)n2)c(OCC(O)CN2CCCC2)c1` (configuration not stated), the activity was inactive: -2.4%.
For `COc1ccccc1C(=O)Nc1ccc(N2CCN(C(=O)c3cccs3)CC2)cc1`, the activity was inactive: -10.8%.
For `Cc1ccccc1-n1c(C)cc(=O)[nH]c1=O` the value was inactive: -13.4%; for `CCN(CC)C(=O)NCc1ccccn1`, inactive: -15.1%; for `Cc1cccn2c(=O)c3cc(C(=O)N4CCCCC4)n(C)c3nc12`, inactive: -4.1%.
For `CCOc1ccc(CN2CCN(Cc3cc(C)[nH]n3)CC2CCO)cc1` (configuration not stated) the value was inactive: -1.8%; for `Fc1ccc(C2(CNc3ccnn3C3CCCC3)CCOC2)cc1` (configuration not stated), 9.8%; for `C#CN(CCC)c1nc(NCC)nc(NCC)n1`, inactive: -7.9%.
For `CCOCCCNC(=O)CCc1nnc(Cc2cc(OC)ccc2OC)o1` the value was 7.5%.
`Cc1[nH]cnc1CN1CCc2[nH]nc(-c3ccc(Cl)cc3)c2C1`: the activity was 0.7%.
For `CN1CCN(CC(=O)NCC23C[C+]4CC(CC(C4)C2)C3)CC1` the value was 9.9%; for `NC(=O)c1ccc(S(=O)(=O)NCc2cccs2)cc1`, 6.3%.
For `COc1cccc(CN2CCCC3(CCN(Cc4cnc(C)n4C)C3)C2)c1OC` (configuration not stated) the value was inactive: -2.7%; for `COc1cccc(CC2CN(Cc3ccc(CO)o3)CCO2)c1` (configuration not stated), 17.2%.
For `c1ccc(CNc2ccc(NCc3ccccc3)nn2)cc1` the value was inactive: -8.7%; for `COc1cc(CN(C)Cc2ccn[nH]2)ccc1OCC(O)CN(C)C(C)C` (configuration not stated), 7.9%.
With `CS(=O)(=O)Nc1ccc(C(=O)N2CCCCCC2)cc1`, the activity worked out at 3.9%.
For the compound `COc1ccc(CNCC2CCOCC2)c(OCC(O)CN2CCN(C)CC2)c1` (configuration not stated), the activity turned out to be 7.1%.
For `COc1cc(S(=O)(=O)N2CCN(C)CC2)c(OC)cc1C` the value was 1.6%; for `O=C(NCCCOc1cccnc1)C1CCC(=O)N(CCc2cccc(F)c2)C1` (configuration not stated), 2.2%.
For `O=C(CCC1CCCN(Cc2cccnc2)C1)N1CCN(Cc2ccccc2)CC1` (configuration not stated) the value was 8.5%; for `CC(C)CS(=O)(=O)c1ncc(CN2C[C@@H](C)O[C@@H](C)C2)n1Cc1ccccc1`, inactive: -1.1%; for `CCCOc1ccccc1C(=O)Nc1ccc(NC(C)=O)cc1`, 0.8%.
For `COCCN1C(=O)C(=O)/C(=C(\O)c2ccc(OC)cc2C)C1c1cccnc1` (configuration not stated) the value was inactive: -3%; for `Cc1cc(C)cc(NC(=O)N2CCCCCC2)c1`, inactive: -6.1%.
On to `CC(C)CC1c2[nH]c3ccccc3c2CCN1Cc1ccc(CO)o1` (configuration not stated), for which the activity was determined as 9.2%.
Turning to `OC(COc1ccccc1CNCCc1ccccn1)CN1CCSCC1` (configuration not stated), the activity is 5.9%.
For `O=C(C(=O)N1CCOC(CCCc2ccccc2)C1)c1ccco1` (configuration not stated), the activity is inactive: -3.7%.
For `COCCS(=O)(=O)c1ncc(CN2CCCCC2CCO)n1Cc1ccccc1` (configuration not stated) the value was 1.6%; for `COc1cccc(CC2CN(C(=O)c3sccc3Cl)CCO2)c1` (configuration not stated), inactive: -1.7%.
With `C#CCN(CC=C)Cc1nc(-c2ccc(C)s2)oc1C`, the activity was inactive: -0.2%.
For `O=C(CCc1ccccc1)Nc1ccnn1C1CCN(C(=O)C2CCOC2)CC1` (configuration not stated) the value was 6.6%; for `COCC(=O)Nc1ccccc1C(=O)NC1CCCCC1`, 1.3%; for `CC(Cc1ccsc1)NC(=O)CCCn1nnnc1CN1CCOCC1` (configuration not stated), 2.4%.
For `CCN1CCN(CC(O)COc2cccc(CNCCn3cccn3)c2)CC1` (configuration not stated) the value was 4.8%; for `CCS(=O)(=O)c1ncc(CN(C)Cc2ccsc2)n1Cc1ccccc1`, 10.4%; for `Cc1cc(C(=O)NC2CCCN(C3CCCCCC3)C2)nc(N)n1` (configuration not stated), inactive: -0.9%.
On to `O=C(c1cn(Cc2ccc(F)cc2Cl)nn1)N1CCCCC1CCN1CCOCC1` (configuration not stated), for which the activity was determined as 2.5%.
For `Cc1ccc(OCCN(C)Cc2nc(COc3ccccc3)no2)cc1` the value was inactive: -3.6%; for `CCOC(=O)C1(CCCc2ccccc2)CCN(C(=O)CCn2cnnn2)CC1`, 0.6%; for `O=S(=O)(CC1CC1)c1ncc(CN2CCCCCCC2)n1CC1CCCO1` (configuration not stated), 3.5%.
Consider `CCN(CC)C(=O)C1CCCN(Cc2nc(-c3ccc(Cl)cc3)oc2C)C1` (configuration not stated), for which the activity is 4.3%.
As for `COc1ccc(CNCCCSC)cc1OCC(O)CN(C)C(C)C` (configuration not stated), the activity came to 3.5%.
For `COCc1ccc(C(=O)NC2CC(=O)N(CC3CCCCC3)C2)o1` (configuration not stated) the value was inactive: -0.2%; for `COc1cc(C(=O)NC2CCCCC2)ccc1OC1CCN(C(C)=O)CC1`, 3.4%; for `Cc1cccc2nc(CNC(=O)CCc3nnc(C4CCCCC4)o3)cn12`, 3.4%.
For `OC(COc1cccc(CNCCc2cnc[nH]2)c1)CN1CCCCCC1` (configuration not stated), the activity came to 16.3%.
On to `CN1CCCCCC1C(=O)NCc1cccnc1N1CCN(c2ccccn2)CC1` (configuration not stated), for which the activity is inactive: -5.2%.
Turning to `COc1cccc(CN2CCNC(=O)C2CC(=O)NC2CCCCCCC2)c1` (configuration not stated), the activity is 2.4%.
